The record followed here is the supplement of paper PMC8326762, “A Small Molecule Inhibitor of Pex3–Pex19 Interaction Disrupts Glycosome Biogenesis and Causes Lethality in Trypanosoma brucei” (Frontiers in Cell and Developmental Biology, 2021).

For experiment [1], the system named is Saccharomyces cerevisiae HF7c pdr5Δ. The experiment can be described thus: general growth inhibition of yeast HF7c pdr5Δ in -Leu -Trp medium, relative to DMSO; higher = stronger general growth inhibition. To be noted: 100 µM; 24 h.
Experiment [2] has as its system human PEX3-PEX19 interaction (yeast two-hybrid). Put plainly: growth inhibition of yeast two-hybrid strain reporting HsPex3-HsPex19 interaction, relative to DMSO; higher = stronger inhibition of human Pex3-Pex19 interaction / growth. To be noted: 100 µM; 24 h; 3-aminotriazole 10 mM.
Experiment [3] concerns T. brucei Pex3-Pex19 interaction (yeast two-hybrid). The experiment can be described thus: growth inhibition of yeast two-hybrid strain reporting TbPex3-TbPex19 interaction, relative to DMSO; higher = stronger inhibition of T. brucei Pex3-Pex19 interaction / growth. To be noted: 100 µM; 24 h.

Counter-ions that a name gives are not always drawn. The list shows a part of the results. This is a noisy data set.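 Yeast growth was read as optical density at 600 nm. The two-hybrid strains grew without histidine, so growth needed the Pex3–Pex19 binding; a compound counted as trypanosome-selective if it cut growth of the trypanosome-pair strain by more than 65% and the human-pair strain by less than 65%.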

`COc1ccc(Cc2nccc3cc(OC)c(OC)cc23)cc1OC` [Papaverine hydrochloride] returned a general growth inhibition in experiment [1] of 8.4%. For the same compound, the growth inhibition came out at 12.2% in experiment [2] and 32.6% in experiment [3].

In experiment [1], `CN(C)C(=O)Oc1ccc[n+](C)c1` [Pyridostigmine bromide] returned a general growth inhibition of 46.7%. Moreover, the results for the growth inhibition in experiment [2] and in experiment [3] were 45.2% and 60%, respectively.

Compound `NC(CCP(=O)(O)O)C(=O)O` (racemic) [(±)-2-Amino-4-phosphonobutyric acid] showed a general growth inhibition in experiment [1] of 34.6%. The growth inhibition in experiment [2] was determined as 40.9%; in experiment [3] it was 56%.

Consider `COC[C@H]1OC(=O)c2coc3c2[C@@]1(C)C1=C(C3=O)[C@@H]2CCC(=O)[C@@]2(C)C[C@H]1OC(C)=O` [Wortmannin from Penicillium funiculosum], for which the general growth inhibition in experiment [1] stood at 91.4%. Also, the growth inhibition in experiment [2] amounted to 88.6%; in experiment [3] it was 84.3%.

`Clc1cnc(Oc2ccc(Oc3ncc(Cl)cc3Cl)cc2)c(Cl)c1` showed a general growth inhibition in experiment [1] of 39.3%. The growth inhibition is 28.8% in experiment [2] and 45% in experiment [3].

As for `NC(CP(=O)(O)O)C(=O)O` (racemic) [(±)-2-Amino-3-phosphonopropionic acid], the general growth inhibition in experiment [1] was determined as 40.5%. Moreover, the growth inhibition is 42.3% in experiment [2] and 59.8% in experiment [3].

`N=C(NCCC[C@H](N)C(=O)O)N[N+](=O)[O-]` [NG-Nitro-L-arginine] displayed a general growth inhibition in experiment [1] of 44.6%. Also, the growth inhibition worked out at 42.4% in experiment [2] and 54.7% in experiment [3].

Compound `CCS(=O)(=O)Nc1cccc(C(=C2CCCCC2)c2cnc[nH]2)c1` registered a general growth inhibition in experiment [1] of 50.1%. Besides, the growth inhibition in experiment [2] is 40.5%; in experiment [3], 61%.

`CCCN(CCC)C1CCc2ccc(O)cc2C1` (racemic) [(±)-7-Hydroxy-DPAT hydrobromide] gave a general growth inhibition in experiment [1] of 39.3%. For the same compound, the growth inhibition in experiment [2] is 41.1%; in experiment [3] it was 67.1%.

Consider `Cc1ccc(S(=O)(=O)N[C@@H](CCCCN)C(=O)CCl)cc1` [Na-p-Tosyl-L-lysine chloromethyl ketone hydrochloride], for which, in experiment [1], the general growth inhibition came out at 58.3%. The growth inhibition in experiment [2] worked out at 45.4%; in experiment [3], 70.1%.

As to `NC(N)=Nc1ccc2[nH]c3c(c2c1)C[C@@]1(O)[C@H]2Cc4ccc(O)c5c4[C@@]1(CCN2CC1CC1)[C@H]3O5` [Guanidinyl-naltrindole di-trifluoroacetate], in experiment [1], the general growth inhibition stood at 80.2%. In addition, the growth inhibition in experiment [2] is 81.7%; in experiment [3], 68.4%.

`c1ccc2sc(C3(N4CCCCC4)CCCCC3)cc2c1` [BTCP hydrochloride] gave a general growth inhibition in experiment [1] of 24.2%. In addition, the growth inhibition came out at 28.8% in experiment [2] and 58.6% in experiment [3].

With `C[N+]1(C)[C@@H]2CC[C@H]1C[C@@H](OC(=O)C(CO)c1ccccc1)C2` (stereo partly specified) [Atropine methyl nitrate], in experiment [1], the general growth inhibition was determined as 41.2%. The growth inhibition is 42.9% in experiment [2] and 50.9% in experiment [3].

`C/C=C(/C)C(=O)O[C@H]1C(C)=C2[C@H]([C@@H]1OC(=O)CCCCCCC)[C@@](C)(OC(C)=O)C[C@H](OC(=O)CCC)[C@@]1(O)[C@H]2OC(=O)[C@@]1(C)O` [Thapsigargin] came in with a general growth inhibition in experiment [1] of 39.2%. The growth inhibition in experiment [2] came out at 33.7%; in experiment [3], 55.7%.

Take `OC1CCCCC1N1CCC(c2ccccc2)CC1` (racemic) [(±)-Vesamicol hydrochloride]: the general growth inhibition in experiment [1] was determined as 56.5%. For the same compound, the growth inhibition in experiment [2] turned out to be 55.6%; in experiment [3], 70.1%.

Take `NC(=O)COc1c(F)cc(SCCNS(=O)(=O)c2ccccc2)cc1F`: the general growth inhibition in experiment [1] came to 38%. For the same compound, the growth inhibition was determined as 35.5% in experiment [2] and 60.5% in experiment [3].

As for `O=C[C@H](Cl)[C@@H](O)[C@H](O)[C@H](O)CO` [2-Chloro-2-deoxy-D-glucose], in experiment [1], the general growth inhibition stood at 38.2%. For the same compound, the growth inhibition in experiment [2] stood at 45.5%; in experiment [3], 64.7%.

In experiment [1], `CC(=O)OCC1=C(C(=O)[O-])N2C(=O)[C@@H](NC(=O)CCC[C@@H](N)C(=O)[O-])[C@H]2SC1.[Zn+2]` [Cephalosporin C zinc salt] displayed a general growth inhibition of 40.8%. Also, the growth inhibition was determined as 41% in experiment [2] and 54.5% in experiment [3].

In experiment [1], `Cc1sc2ccccc2c1CC1=NCCN1` [Benazoline oxalate] had a general growth inhibition of 39.2%. In addition, the growth inhibition in experiment [2] came out at 41.1%; in experiment [3], 60.1%.

Turning to `CC(Cc1ccc(O)cc1)NCC(O)c1cc(O)cc(O)c1` (stereo unspecified) [Fenoterol hydrobromide], the general growth inhibition in experiment [1] was determined as 28.3%. For the same compound, the growth inhibition in experiment [2] is 28.8%; in experiment [3], 52.5%.

Turning to `CC(NC(C)(C)C)C(=O)c1cccc(Cl)c1` (stereo unspecified) [Bupropion hydrochloride], the general growth inhibition in experiment [1] was 31.6%. Moreover, the growth inhibition in experiment [2] worked out at 35.1%; in experiment [3] it was 57.6%.

`Cn1c(CCCC(=O)O)nc2cc(N(CCCl)CCCl)ccc21` [Bendamustine hydrochloride] had a general growth inhibition in experiment [1] of 28.6%. Besides, the growth inhibition in experiment [2] was 33.9%; in experiment [3], 55.4%.

As for `O=c1[nH]c2ccccc2n1C1CCN(CCCC(c2ccc(F)cc2)c2ccc(F)cc2)CC1` [Pimozide], in experiment [1], the general growth inhibition amounted to 48%. Besides, the growth inhibition in experiment [2] came to 65.8%; in experiment [3] it was 61.6%.

Compound `CNC(=O)Oc1ccc2c(c1)[C@]1(C)CCN(C)[C@@H]1N2C` [(-)-Physostigmine] registered a general growth inhibition in experiment [1] of 12.7%. The growth inhibition in experiment [2] is 32.7%; in experiment [3], 40%.

`Cc1[nH]c2ccc(O)cc2c1CCN` [2-Methyl-5-hydroxytryptamine maleate] displayed a general growth inhibition in experiment [1] of 48%. Moreover, the growth inhibition was found to be 44% in experiment [2] and 61.6% in experiment [3].

In experiment [1], `CN1C(=O)CCS(=O)(=O)C1c1ccc(Cl)cc1` (stereo unspecified) [Chlormezanone] registered a general growth inhibition of 36.8%. Also, the growth inhibition amounted to 43% in experiment [2] and 55% in experiment [3].

In experiment [1], `NCCc1ccc(S(=O)(=O)F)cc1` [4-(2-Aminoethyl)benzenesulfonyl fluoride hydrochloride] displayed a general growth inhibition of 42.7%. Besides, the growth inhibition in experiment [2] is 40.7%; in experiment [3], 57.3%.
